Results reported in the supplement of paper PMC9233669.
Variants at the background level are over-represented here.

How the values were obtained:
[1] = tested on: biotinyl-Val-oxazolone; assay: self-aminoacylation, catalytic enhancement (BVO) (fold over background); higher = more active; k-Seq, kA / k0A0; sequences stand for … in GGGAAUGGAUCCACAUCUACGAAUUC…UUCACUGCAGACUUGACGAAGCUG
Outline: (§1)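 The uncatalyzed rate is the low-activity peak of a bimodal Gaussian fit, and catalytic enhancement is median kA divided by it. The kA values came from pseudo-first-order fits, with 1000 bootstraps, of per-sequence fraction reacted measured by streptavidin capture, triplicate qPCR and Illumina sequencing. Mutagenized RNA pools with a 21-nt variable region (0.43 μM) were reacted with each biotinyl-aminoacyl-oxazolone at 2–1250 μM in 50 μL HEPES/NaCl/KCl/MgCl2/CaCl2 buffer with 5% acetonitrile, pH 6.9–7.0, for 90 minutes at room temperature.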

[2] = tested on: biotinyl-Ile-oxazolone; assay: self-aminoacylation, catalytic enhancement (BIO) (fold over background); higher = more active; k-Seq, kA / k0A0; sequences stand for … in GGGAAUGGAUCCACAUCUACGAAUUC…UUCACUGCAGACUUGACGAAGCUG
Outline: as §1

[3] = tested on: biotinyl-Leu-oxazolone; assay: self-aminoacylation, catalytic enhancement (BLO) (fold over background); higher = more active; k-Seq, kA / k0A0; sequences stand for … in GGGAAUGGAUCCACAUCUACGAAUUC…UUCACUGCAGACUUGACGAAGCUG
Outline: as §1

[4] = tested on: biotinyl-Met-oxazolone; assay: self-aminoacylation, catalytic enhancement (BMO) (fold over background); higher = more active; k-Seq, kA / k0A0; sequences stand for … in GGGAAUGGAUCCACAUCUACGAAUUC…UUCACUGCAGACUUGACGAAGCUG
Outline: as §1

Sequence	self-aminoacylation [1]	self-aminoacylation [2]	self-aminoacylation [3]	self-aminoacylation [4]
AACUCUGCUAAUAGUCGCAAG [Fam3.1 aminoacylation ribozyme variant]	1.73	1.79	1.53	
AAGAUUGUUAAUAGUCGCAAG [Fam3.1 aminoacylation ribozyme variant]	1.93	1.86	1.99	
AAGCUUGCUAAUAGUCGCAAU [Fam3.1 aminoacylation ribozyme variant]	1.95		1.89	
AAGCUUGCUAAUAGUCGCAGG [Fam3.1 aminoacylation ribozyme variant]	1.77	1.89		1.87
AAGUUAGCCAAUAGUCGCAAG [Fam3.1 aminoacylation ribozyme variant]	1.77			
AAGUUCGCUAAUAGUCGCAAA [Fam3.1 aminoacylation ribozyme variant]	1.73			
AAGUUCGCUAAUAGUCGCAAU [Fam3.1 aminoacylation ribozyme variant]		1.97	2	
AAGUUUGAUAAUAGUAGCAAG [Fam3.1 aminoacylation ribozyme variant]	0.691	0.724		
AAGUUUGCUAAUAGUCGGAAG [Fam3.1 aminoacylation ribozyme variant]	1.03	1.13		
AAGUUUGCUAAUAUUCGCGAG [Fam3.1 aminoacylation ribozyme variant]	1.84		1.91	
AAUACCCUCGUCAUCGAGUGA [Fam2.1 aminoacylation ribozyme variant]	1.84			
AAUCACCUAGGUCAUCGGGCG [Fam2.2 aminoacylation ribozyme variant]	2.77	3.35		
AAUUUUGCUAAUAGUCGCAUG [Fam3.1 aminoacylation ribozyme variant]	1.67	1.95	1.71	
AGGUUUGCUAAAAGUCGCAAG [Fam3.1 aminoacylation ribozyme variant]	1.47	1.81	1.49	
AGUACCCUGGUCAUCGUGUGA [Fam2.1 aminoacylation ribozyme variant]		1.94		
AUAACCCUUGUCAUCGAGUGA [Fam2.1 aminoacylation ribozyme variant]	3.13	3.29		
AUCCACCUAGGACAUCGGGUG [Fam2.2 aminoacylation ribozyme variant]	3.38	3.12		
AUGCACCUAGGGCAUCGGGUG [Fam2.2 aminoacylation ribozyme variant]	3.46	2.89		3.04
AUUAACCUGGUCAUCGAGUGU [Fam2.1 aminoacylation ribozyme variant]	2.61	2.33		
AUUACACUCGUCAUCGAGUGA [Fam2.1 aminoacylation ribozyme variant]	1.91			

Sequence	self-aminoacylation [1]	self-aminoacylation [2]	self-aminoacylation [3]	self-aminoacylation [4]
AUUACACUGGUCAUAGAGUGA [Fam2.1 aminoacylation ribozyme variant]		1.98		
AUUACCCUGGUCAUUGCGUGA [Fam2.1 aminoacylation ribozyme variant]	7.31	6.44		15.8
AUUACCCUGGUCGUCCAGUGA [Fam2.1 aminoacylation ribozyme variant]	1.64	1.97		
AUUACCCUGGUCUGCGAGUGA [Fam2.1 aminoacylation ribozyme variant]	1.41	1.66		
AUUACCCUGGUUAUCGAGUGU [Fam2.1 aminoacylation ribozyme variant]	1.79	1.44		
AUUAGCCUGCUCAUCGAGUGA [Fam2.1 aminoacylation ribozyme variant]	1.96	1.96		
AUUAGCCUGGUCACCGAGUGA [Fam2.1 aminoacylation ribozyme variant]	4.65	4.14		8.98
AUUCAACUAGGUAAUCGGGUG [Fam2.2 aminoacylation ribozyme variant]	1.55	1.83		
AUUCACCUAGCUUAUCGGGUG [Fam2.2 aminoacylation ribozyme variant]	1.91	1.73	1.84	
AUUCACCUAGGUCAUCGCGUC [Fam2.2 aminoacylation ribozyme variant]		1.61	1.98	
AUUCACCUAGUUCAUAGGGUG [Fam2.2 aminoacylation ribozyme variant]	1.78	1.95		
AUUCACCUUGGUCAUCGGGGG [Fam2.2 aminoacylation ribozyme variant]		1.93		
AUUCACUUAGGUCCUCGGGUG [Fam2.2 aminoacylation ribozyme variant]	2.96	3.12		4.58
AUUCAGCUAGGUCAUCUGGUG [Fam2.2 aminoacylation ribozyme variant]	1.67	1.92		
AUUCCCCUGGCCAUCGAGUGA [Fam2.1 aminoacylation ribozyme variant]	4.87	3.34		
AUUCGCCUAGGUAAUCGGGUG [Fam2.2 aminoacylation ribozyme variant]	2.43	2.02		
AUUCUCCUCGGUCAUCGGGUG [Fam2.2 aminoacylation ribozyme variant]		8.05		
AUUGCCCUGGUCAUCGAGUGA [Fam2.1 aminoacylation ribozyme variant]	23.7	20.6		53.1
AUUUACCCAGGUCAUCGGGUG [Fam2.2 aminoacylation ribozyme variant]	3.55	3.28		
CCACACUCCAAGCAAUCGCUC [Fam1B.1 aminoacylation ribozyme variant]	2.56	1.92		

Sequence	self-aminoacylation [1]	self-aminoacylation [2]	self-aminoacylation [3]	self-aminoacylation [4]
CCACACUUCAACCAAUCGUUC [Fam1B.1 aminoacylation ribozyme variant]	0.636	0.674		0.634
CCACACUUCAAGCAAUGGGUG [Fam1B.1 aminoacylation ribozyme variant]		1.74		
CCACACUUCAAGCAAUUGGUG [Fam1B.1 aminoacylation ribozyme variant]	1.96			
CCACACUUCACGCAAUCGGCC [Fam1B.1 aminoacylation ribozyme variant]			1.88	
CCACUUCAAUCAAUCGGUCUG [Fam1A.1 aminoacylation ribozyme variant]	1.56	1.53		1.54
CCAGGCUUCAAGCAAUCGGUC [Fam1B.1 aminoacylation ribozyme variant]	1.47	1.24		1.45
CCAUUUCAAACAAUCGGUCUG [Fam1A.1 aminoacylation ribozyme variant]	1.04	1.03		
CCCCACUUCAACCAAUCGGUC [Fam1B.1 aminoacylation ribozyme variant]	1.8			1.91
CCCCACUUCAAGCAAUCGGUA [Fam1B.1 aminoacylation ribozyme variant]	1.83	1.82		1.9
CCCCACUUCAAGCAAUCGUUC [Fam1B.1 aminoacylation ribozyme variant]	0.849	0.898		
CGACACUUCAAGCAAUUGGUC [Fam1B.1 aminoacylation ribozyme variant]	0.718	0.908		0.864
CUACUGCAAACAAUCGGUCUU [Fam1A.1 aminoacylation ribozyme variant]	0.836	0.974		
CUACUUCAAACCAUCGGCCUG [Fam1A.1 aminoacylation ribozyme variant]	1.94	1.82		
CUACUUCAACCAAUAGGUCUG [Fam1A.1 aminoacylation ribozyme variant]	0.777	0.947		
CUACUUCGAACAAUCGGUCCG [Fam1A.1 aminoacylation ribozyme variant]	0.738	0.879		
CUGCUUCAAACAAUCGGCCUG [Fam1A.1 aminoacylation ribozyme variant]	3.35	3.07		
CUUACCCUGCUCAUCGAGUGA [Fam2.1 aminoacylation ribozyme variant]	1.76	1.64		
GCACACUUCGAGCAAUCGGUC [Fam1B.1 aminoacylation ribozyme variant]	1.81	1.87		1.9
